Here are results for 21 molecules from the supplement of paper PMC8732350.

Structures can show the parent of a compound that is named as a salt. ± gives the standard deviation of the averaged measurements. This is one part of the list. This data set is noisy: repeats of one test often differ as much as different tests do.

This assay relates to A549. The experiment in a line: surface PD-L1 immunofluorescence intensity relative to IFN-gamma-only control (ratio); higher = more PD-L1 expression. Particulars: 10 µM; exposure time 24 h; IFN-gamma 100 ng/mL.
`O=C(O)C=C1CCCc2ccccc2C1O` (stereo unspecified): the “surface PD-L1 immunofluorescence intensity” value turned out to be 1.01.

`COc1cccc(Nc2c(C(N)=O)cnc3c(C)cc(S(=O)(=O)c4cccc(C(=O)N(C)C)c4)cc23)c1`: the “surface PD-L1 immunofluorescence intensity” value came out at 0.942. On to `CC(=O)N(OCc1ccccc1)[C@H]1c2cc(C#N)ccc2OC(C)(C)[C@H]1O`, for which the “surface PD-L1 immunofluorescence intensity” value came out at 0.932. For `CC(C)(C)c1nc(-c2cccc(NS(=O)(=O)c3c(F)cccc3F)c2F)c(-c2ccnc(N)n2)s1`, the “surface PD-L1 immunofluorescence intensity” value was found to be 1.06 ± 0.13. To `OCC1OC(n2cnc3c(NC4CCCC4)nc(Cl)nc32)C(O)C1O` (stereo unspecified) [2-Chloro-N6-cyclopentyladenosine] belongs 0.906. To `N[C@@H](Cc1cc(CP(=O)(O)O)cc(-c2ccccc2Cl)c1)C(=O)O` belongs 1.02. For the molecule `O=c1c(-c2ccc(O)cc2)coc2cc(O)ccc12` [Daidzein], the “surface PD-L1 immunofluorescence intensity” value is 0.949. The value for `CC(C)NC[C@H](O)COc1cccc2ccccc12` [(S)-(-)-Propranolol hydrochloride] was 0.902. The value for `CC(C)NC[C@H](O)COc1cccc2ccccc12` [(S)-propranolol hydrochloride] was 1.05.

With `CC1(C)CC[C@]2(C(=O)O)CC[C@]3(C)C(=CC[C@@H]4[C@@]5(C)CC[C@H](O)C(C)(C)[C@@H]5CC[C@]43C)[C@@H]2C1` [Oleanolic Acid (Caryophyllin)], the “surface PD-L1 immunofluorescence intensity” value came out at 0.934.

Turning to `O=C(O)CCCCC(CCSCc1ccccc1)SCc1ccccc1` (stereo unspecified), the “surface PD-L1 immunofluorescence intensity” value was 0.954. The value for `CS(=O)(=O)c1ccc(-c2cnc(N)c(C(=O)Nc3ccccc3)n2)cc1` was 1.02 ± 0.02; that for `NS(=O)(=O)c1cc(Cl)c(Cl)c(S(N)(=O)=O)c1` [Dichlorphenamide] was 0.903. The value for `Cc1ccnc(NS(=O)(=O)c2ccc(NC(=O)Nc3ccc(S(=O)(=O)Nc4nccc(C)n4)cc3)cc2)n1` was 0.928; that for `O=C(O)C1=CO[C@@H](O[C@@H]2O[C@H](CO)[C@@H](O)[C@H](O)[C@H]2O)[C@@H]2C(CO)=CC[C@H]12` [Geniposidic acid] was 0.905; that for `CCN1CCCC(OC(=O)C(c2ccccc2)c2ccccc2)C1` (stereo unspecified) [Piperidolate hydrochloride] was 1.09. For the molecule `CN(C)CCCSC(=N)N` [Dimaprit dihydrochloride], the “surface PD-L1 immunofluorescence intensity” value turned out to be 1.05 ± 0.063.

Take `CN(C)CCOc1ccc(-c2nc(-c3ccncc3)c(-c3ccc4c(c3)CC/C4=N\O)[nH]2)cc1`: the “surface PD-L1 immunofluorescence intensity” value stood at 0.96.

`Cc1onc(-c2c(F)cccc2Cl)c1C(=O)N[C@@H]1C(=O)N2[C@@H]1SC(C)(C)[C@@H]2C(=O)O` [Flucloxacillin sodium]: the “surface PD-L1 immunofluorescence intensity” value was determined as 0.962. The value for `C=CCNC(=O)c1cc([N+](=O)[O-])cc2c(=O)[nH]c(Nc3ccc(Cl)c(Cl)c3)nc12` was 0.995; that for `C[C@]12CC[C@@H](O)C[C@@H]1CC[C@@H]1[C@@H]2CC[C@]2(C)C=CC[C@@H]12` [3a, 5a-Androstenol] was 1.02.
